Laboratory results: PubChem BioAssay AID743121 (NCATS, 2013)
Shown is one part, drawn at random, of about 26,000 reagents. 167 of them (0.63%) were called active. 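Calls are per gene from RSA p-values that are not deposited; an individual active-marked siRNA can sensitise only weakly.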 Unmarked entries are inactive. The numbers tell different reagents against one gene apart.

Screen: 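Genes whose silencing strengthens cell killing by camptothecin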 (primary screen)
System: MDA-MB-231 cells, a human breast cancer line
Reagents: single siRNA against human genes, 20 nM siRNA (0.8 pmol per well)
Time to read-out: 120 h (drug added 48 h after transfection, read 72 h later)
Conditions: camptothecin 20 nM (about EC30) for 72 h; vehicle 0.1% DMSO in parallel plates
Read-out: 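Cell viability by ATP luminescence (CellTiter-Glo) as % of non-targeting siRNA wells, and the log2 ratio of viability without drug over viability with camptothecin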
Direction: log2 vehicle/camptothecin viability: higher = stronger sensitisation to camptothecin; viability with camptothecin and viability without drug: higher = more viable cells
Rule for the call: 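Active genes have an RSA gene-level p-value below 0.001, computed from the ratios of their separate siRNAs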

no.	target	siRNA no.	log2 vehicle/camptothecin viability	viability with camptothecin (% of control)	viability without drug (% of control)
1	HCN3	1	-0.342	73.7	58.2
2	HCN3	2	-0.268	73.7	61.2
3	HCN3	3	0.133	23.2	25.4
4	HCN3	4	0.185	38.9	44.2
5	MMP21	1	-0.0087	88.1	87.6
6	MMP21	2	-1.19	57.7	25.3
7	MMP21	3	0.404	47.5	62.8
8	CD38	1	-0.39	83.8	63.9
9	CD38	2	0.0615	60.1	62.8
10	CD38	3	-0.494	78.5	55.8
11	ZMYND19	1	1.21	39.7	92
12	ZMYND19	2	-0.0967	87.7	82
13	ZMYND19	3	-0.115	76.4	70.6
14	IL5RA	1	-0.335	96.5	76.5
15	IL5RA	2	-0.175	82.5	73
16	IL5RA	3	0.236	78.7	92.7
17	IL5RA	4	-0.19	120	105
18	EN1	1	-0.368	96	74.4
19	EN1	2	-0.42	71.1	53.1
20	EN1	3	0.018	96	97.2
21	EN1	4	-0.245	90.1	76
22	RAB2A	1	0.208	43.8	50.6
23	RAB2A	2	0.251	66.9	79.5
24	RAB2A	3	0.0563	94.4	98.1
25	RAB2A	4	0.135	69.5	76.3
26	LYN	1	-0.187	54.2	47.6
27	LYN	2	-0.496	103	72.9
28	LYN	3	-0.158	74.6	66.9
29	LYN	4	-0.194	53.2	46.5
30	ADGRB1	1	0.0261	48.7	49.6
31	ADGRB1	2	-0.703	71.6	44
32	ADGRB1	3	0.184	95.6	109
33	ADGRB1	4	-0.0632	56.6	54.2
34	AGTR2	1	-0.479	56.1	40.2
35	AGTR2	2	0.387	57.6	75.3
36	AGTR2	3	-0.0442	78	75.7
37	AGTR2	4	-0.585	41.3	27.5
38	KIF4B	1	-0.329	52.8	42
39	KIF4B	2	-0.00596	83.3	83
40	KIF4B	3	0.0925	58.5	62.4
41	KIF4B	4	-0.219	18.3	15.7

Continued (2 carried over from the part before).
no.	target	siRNA no.	log2 vehicle/camptothecin viability	viability with camptothecin (% of control)	viability without drug (% of control)
40	KIF4B	3	0.0925	58.5	62.4
41	KIF4B	4	-0.219	18.3	15.7
42	MARCHF2	1	-0.74	24	14.4
43	MARCHF2	2	0.00483	73.2	73.5
44	MARCHF2	3	0.0922	85	90.6
45	MARCHF2	4	0.988	55.9	111
46	KCNA5	1	-0.344	90.8	71.5
47	KCNA5	2	-0.528	56.7	39.3
48	KCNA5	3	-0.188	56.3	49.4
49	KCNA5	4	-0.613	81.4	53.2
50	PLK2	1	1.22	16.2	37.7
51	PLK2	2	-0.255	70	58.7
52	PLK2	3	-0.00961	86.7	86.1
53	PLK2	4	-0.363	116	90.4
54	EIF3F	1	-0.27	64.2	53.3
55	EIF3F	2	-0.351	61.4	48.2
56	EIF3F	3	-0.459	75.9	55.2
57	PEX5L	1	-0.308	61.8	49.9
58	PEX5L	2	-0.139	98.9	89.9
59	PEX5L	3	-0.31	94.2	76
60	PEX5L	4	-0.469	105	76.1
61	CXCL9	1	0.92	26.2	49.6
62	CXCL9	2	-0.325	38.3	30.6
63	CXCL9	3	-0.261	102	84.8
64	CXCL9	4	0.00154	36.6	36.7
65	STX8	1	-0.0101	107	106
66	STX8	2	-0.834	57.8	32.4
67	STX8	3	-0.331	93.3	74.2
68	STX8	4	-0.426	108	80.5
